# Several values for one entry are separate records, joined by “and”; a condition that tells them apart may be missing. Identical values can stand only once. The list shows a part of the results. Shown are side measurements of this screen, not its main read-out; they come without a call. The list favours compounds with an active or inconclusive main result. Potencies come from curve fits of mixed quality, noted in brackets.
# Key:
# [1] = Validation of Assay for Modulators of Lamin A Splicing (AID 1459); settings: Lamin A splicing dual RFP/GFP fluorescence reporter, ratio
# How it was run: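 Readout: ratio of GFP (500-530 nm) to RFP (575-640 nm) total object intensity by 488 nm laser-scanning cytometry after 48 hrs. Cells were HeLa S3 clones carrying lamin A-EGFP minigene plus DsRed2 viability reporter; vehicle 0.5% DMSO final.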
# [2] = qHTS Assay for Lipid Storage Modulators (AID 1519); settings: Drosophila S3 cells, BODIPY lipid droplet/cell ratio, laser cytometry, cells loaded with oleic acid
# How it was run: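 Cells seeded at 5,000 per well were treated with compounds over a concentration series and loaded with oleic acid (400 uM, as added). Lipid droplet fluorescence (488 nm excitation, 500-530 nm channel) was read by laser-scanning cytometry and normalized to 20 uM Triacsin C.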
# [3] = qHTS Assay for Modulators of Human Peripheral Myelin Protein 22 (PMP22) Expression/Activity (AID 1967); settings: Cell-based PMP22 reporter, dual-color luciferase ratio
# How it was run: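 Mouse MSC80 Schwann line, Pmp22 promoter–CBG68 reporter, EF-alpha–CBR internal control. 24h compound exposure, 37 °C/5% CO2, DMEM + 10% FBS. Readout: corrected green/red luminescence ratio, normalized to untreated cells; concentration-response curves fitted and classified.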
# [4] = qHTS Validation Assay to Find Inhibitors of Chronic Active B-Cell Receptor Signaling (AID 485345); settings: ABC-DLBCL cells, chronic BCR signaling reporter
# How it was run: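 TMD8 ABC-DLBCL cells with dox-inducible green luciferase–IκBα fusion and red native luciferase; compounds 46 uM–3 nM, 4 h at 37C with doxycycline in 0.5% FBS IMDM. Green/red ratio normalized to basal and 10 uM MG-132.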
# [5] = A High-Content qHTS Against Drug Library for the Identification of Small Molecules that Inhibit DYT1 Early Onset Primary Dystonia-Associated Cell Pathology (AID 1645839); settings: HEK293 Flp-In EGFP-delE TorsinA, punctate imaging, 48 h; measured here: cell count cytotoxicity
# How it was run: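 Readout: %pathology, the punctate EGFP-TorsinA distribution from imaging, as the primary channel and cell count as the toxicity counterscreen. HEK293 Flp-In cells expressing delE TorsinA were induced with tetracycline and treated with compound for 48 h.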
# [6] = Nrf2 qHTS screen for inhibitors: Validation (AID 493153); settings: A549 ARE-Fluc reporter, 18-24 h; AC50: CellTiter-Fluor fluorescence read, measured here: cytotoxicity CellTiter-Fluor AC50; viability change: measured here: cytotoxicity max response
# How it was run: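 Dose-response validation uses reporter A549 cells with firefly luciferase under an antioxidant response element. Compounds stay on cells 18-24 h at 37°C, and luminescence indicates Nrf2-driven transcription.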
# [7] = qHTS for identification of novel therapeutic agents for treatment of microphthalmiaassociated transcription factor (MiT) renal cell carcinoma (RCC) (AID 1963991); settings: CellTiter-Glo, 48 h; for z-score: stronger effect = lower value
# How it was run: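 Three TFE3-fusion RCC cell lines (UOK109, UOK124, UOK145), 500 cells/well, were exposed to the 1912-compound MIPE 4.0 library for 48 hours at 37 C. Viability was read by CellTiter-Glo luminescence, normalised to DMSO (100%) and empty wells (0%), with 11-concentration curve fits.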
# [8] = measured here: cell count channel max response
# [9] = measured here: lipid (BODIPY) channel AC50
# [10] = measured here: lipid channel max response
# [11] = measured here: green reporter channel AC50, mouse Pmp22 promoter in mouse Schwann cells
# [12] = measured here: red reporter channel AC50, EF-alpha promoter control reporter in MSC80 mouse Schwann cells
# [13] = measured here: CBG/CBR ratio read-out
# [14] = measured here: CBR control luciferase (viability counter)
# [15] = TFE3-RCC UOK109 viability, measured here: UOK109 Z-AUC
# [16] = TFE3-RCC viability, measured here: UOK124 Z-AUC
# [17] = TFE3-RCC viability, measured here: UOK124 cell viability
# [18] = TFE3-RCC viability, measured here: UOK145 Z-AUC
# [19] = TFE3-RCC viability, measured here: UOK145 cell viability
# [20] = measured here: cell number channel AC50
smiles,measurement,setting,value
COC(=O)C1=C(C)NC(C)=C(C(=O)OCCN(C)Cc2ccccc2)C1c1cccc([N+](=O)[O-])c1 (centres undefined),AC50,[1]; measured here: GFP channel,"35.5 µM [falling, single point]"
same,AC50,[1]; measured here: RFP channel,"20 µM [falling, partial curve]"
same,max response,[2]; [8],-5.75%
same,AC50,[2]; [9],"0.355 µM [rising, full curve, poor fit]"
same,max response,[2]; [10],11%
same,AC50,[3]; [11],"60.1 µM [falling, partial curve]"
same,AC50,[3]; [12],"47.8 µM [falling, partial curve]"
same,AC50,[4]; [13],"18.4 µM [falling, partial curve]"
same,AC50,[4]; [14],"8.2 µM [falling, single point]"
same,AC50,[5],"12.6 µM [falling, single point]"
CN1CCN(CCCN2c3ccccc3Sc3ccc(Cl)cc32)CC1,AC50,[1]; measured here: GFP channel,"10 µM [falling, partial curve]"
same,AC50,[1]; measured here: RFP channel,"17.8 µM [rising, single point]"
same,max response,[2]; [8],41.1%
same,max response,[2]; [10],42.2%
same,AC50,[3]; [11],"42.6 µM [falling, full curve]"
same,AC50,[3]; [12],"37.9 µM [falling, full curve]"
same,AC50,[4]; [13],"29.1 µM [falling, single point]"
same,AC50,[4]; [14],"29.1 µM [falling, single point]"
same,AC50,[6],"32.6 µM [falling, partial curve, poor fit]"
same,viability change,[6],-22.1%
same,z-score,[7]; [15],-0.647
same,z-score,[7]; [16],0.115
same,AC50,[7]; [17],"26.4 µM [falling, partial curve]"
same,z-score,[7]; [18],0.0461
same,AC50,[7]; [19],"20.9 µM [falling, partial curve]"
Cc1cc(N)c2ccccc2[n+]1CCCCCCCCCCCCCC[n+]1c(C)cc(N)c2ccccc21,AC50,[1]; measured here: GFP channel,"12.6 µM [falling, partial curve]"
same,AC50,[1]; measured here: RFP channel,"12.6 µM [falling, partial curve]"
same,max response,[2]; [8],-81.3%
same,max response,[2]; [10],-109%
same,AC50,[3]; [11],"3.38 µM [falling, full curve]"
same,AC50,[3]; [12],"1.9 µM [falling, full curve]"
COc1ccc([C@@H]2Sc3ccccc3N(CCN(C)C)C(=O)[C@@H]2OC(C)=O)cc1,AC50,[1]; measured here: GFP channel,"35.5 µM [falling, single point]"
same,AC50,[1]; measured here: RFP channel,"35.5 µM [falling, single point]"
same,max response,[2]; [8],36.7% and -17.5%
same,AC50,[2]; [20],"14.1 µM [rising, single point] and 4.47 µM [falling, full curve, poor fit]"
same,AC50,[2]; [9],"4.47 µM [falling, full curve, poor fit]"
same,max response,[2]; [10],48.8% and -17%
same,viability change,[6],12.6%
Cc1cn[nH]c1,AC50,[1]; measured here: GFP channel,"35.5 µM [falling, single point]"
same,AC50,[1]; measured here: RFP channel,"35.5 µM [falling, single point]"
same,max response,[2]; [8],-42.7%
same,AC50,[2]; [9],"44.7 µM [falling, single point]"
same,max response,[2]; [10],-39.6%
same,AC50,[3]; [12],"37.9 µM [rising, single point]"
same,z-score,[7]; [15],0.137
same,z-score,[7]; [16],0.354
same,AC50,[7]; [17],"0.372 µM [falling, full curve]"
same,z-score,[7]; [18],-0.17
same,AC50,[7]; [19],"0.0935 µM [falling, full curve]"
Nc1nc(Cl)nc2c1ncn2[C@@H]1O[C@H](CO)[C@H](O)[C@H]1O,AC50,[1]; measured here: GFP channel,"25.1 µM [falling, single point]"
same,AC50,[1]; measured here: RFP channel,"20 µM [falling, single point]"
same,max response,[2]; [8],40.9%
same,max response,[2]; [10],38.6%
same,AC50,[3]; [11],"19 µM [falling, full curve]"
same,AC50,[3]; [12],"16.9 µM [falling, full curve]"
COc1ccccc1N1CCN(CCCCNS(=O)(=O)c2cccc3c(N(C)C)cccc23)CC1,AC50,[1]; measured here: GFP channel,"35.5 µM [falling, single point]"
same,AC50,[1]; measured here: RFP channel,"35.5 µM [falling, single point]"
same,max response,[2]; [8],-23.7%
same,AC50,[2]; [20],"0.00224 µM [falling, full curve, poor fit]"
same,max response,[2]; [10],-27.9%
same,AC50,[3]; [11],"42.6 µM [falling, full curve]"
same,AC50,[3]; [12],"42.6 µM [falling, partial curve]"
same,AC50,[4]; [13],"29.1 µM [falling, single point]"
same,AC50,[6],"18.4 µM [falling, single point]"
same,viability change,[6],-39.2%
CN(C)C/C=C(/c1ccc(Br)cc1)c1cccnc1,AC50,[1]; measured here: GFP channel,"35.5 µM [falling, single point]"
same,AC50,[1]; measured here: RFP channel,"35.5 µM [falling, single point]"
same,max response,[2]; [8],40%
same,AC50,[2]; [9],"39.8 µM [rising, single point]"
same,max response,[2]; [10],41.2%
same,AC50,[3]; [11],"37.9 µM [falling, partial curve]"
same,AC50,[3]; [12],"60.1 µM [falling, partial curve, poor fit]"
same,AC50,[5],"11.2 µM [falling, partial curve, poor fit]"
N#Cc1c(-c2ccccc2)no[n+]1[O-],AC50,[1]; measured here: GFP channel,"35.5 µM [falling, single point]"
same,AC50,[1]; measured here: RFP channel,"20 µM [falling, partial curve]"
same,max response,[2]; [8],51.8%
same,max response,[2]; [10],40.5%
same,AC50,[3]; [11],"26.9 µM [falling, full curve]"
same,AC50,[3]; [12],"30.1 µM [falling, full curve]"

# — PubChem BioAssay (NCATS)
